PMC11047546
No constants are given. Whether binding was seen depends on the method and setting. In cells and extracts the contact can be indirect. Some results given as binding are weak or reduced against the parent protein; the word gives no strength.

Chains of the proteins cited; added tags and fusions are not shown. Lines headed by an entry give the natural chain unless they say otherwise; changes in a name come on top.
UniProt P57790: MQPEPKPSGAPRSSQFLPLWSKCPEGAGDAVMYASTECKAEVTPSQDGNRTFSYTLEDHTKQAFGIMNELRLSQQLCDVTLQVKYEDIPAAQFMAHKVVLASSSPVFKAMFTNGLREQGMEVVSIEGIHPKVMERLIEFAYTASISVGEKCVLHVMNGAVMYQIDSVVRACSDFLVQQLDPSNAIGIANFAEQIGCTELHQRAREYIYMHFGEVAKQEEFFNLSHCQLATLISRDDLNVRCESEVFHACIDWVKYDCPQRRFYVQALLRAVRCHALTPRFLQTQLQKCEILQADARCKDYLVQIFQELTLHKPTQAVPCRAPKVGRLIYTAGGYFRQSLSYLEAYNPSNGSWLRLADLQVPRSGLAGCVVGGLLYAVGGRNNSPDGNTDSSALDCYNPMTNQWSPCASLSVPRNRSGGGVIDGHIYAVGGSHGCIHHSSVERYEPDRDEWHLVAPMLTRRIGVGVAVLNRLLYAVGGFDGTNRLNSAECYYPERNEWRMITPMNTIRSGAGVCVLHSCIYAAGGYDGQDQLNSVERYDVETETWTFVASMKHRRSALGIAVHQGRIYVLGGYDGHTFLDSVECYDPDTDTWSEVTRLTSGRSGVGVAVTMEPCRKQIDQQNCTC

Legend:
[1] = target: Kelch-like ECH-associated protein 1 (Keap1), endogenous in RINm5F cells (rat (endogenous in RIN-m5F)) (UniProt P57790); experiment: co-IP; RINm5F cells cultured in NG, OsG or OsG + GSH (13 mmol/L) for 6 days; NP40 lysis buffer; lysate incubated with anti-Keap1 antibody (or IgG, negative control) overnight at 4 °C, protein G magnetic beads; blot with anti-Nrf2 and anti-Keap1
[2] = target: full-length rat Keap1, wild type, 3×Flag-tagged (Keap1-WT) (rat) (UniProt P57790); experiment: co-IP; RINm5F cells transfected with 3×Flag-Keap1 WT or cysteine mutants, OsG with or without GSH; NP40 lysis buffer; lysate incubated with anti-Flag antibody overnight at 4 °C, protein G magnetic beads; blot with anti-Nrf2
[3] = target: full-length rat Keap1 C288A, 3×Flag-tagged (rat) (UniProt P57790); experiment: as above
[4] = target: full-length rat Keap1 C273A, 3×Flag-tagged (rat) (UniProt P57790); experiment: as above

Measured: binding

B1: nuclear factor erythroid 2-related factor 2 (Nrf2), endogenous in RINm5F cells (protein, UniProt O54968-1 1-604)
chain: MMDLELPPPGLQSQQDMDLIDILWRQDIDLGVSREVFDFSQRQKDYELEKQKKLEKERQEQLQKEQEKAFFAQLQLDEETGEFLPIQPAQHIQTDTSGSVSYSQVAHIPKQDALYFEDCMQLLAETFPFVDDHEVSSPTFQSLALDIPSHVESSVFTTPDQAQSLDSSLETAMTDLSSIQQDMEQVWQELFSIPELQCLNTENKQQAETTTVPSPEATLTEMDSNYHFYSSIPSLEKEVDSCSPHFLHGFEDSFSSILSTDDASQLNSLDSNPTLNTDFGDEFYSAFLAEPSGGGSMPSSAAISQSLSELLGGPIEGCDLSLCKAFNQKHTEGTVEFNDSDSGISLNTSPSRASPEHSVESSIYGDPPPGFSDSEMEELDSAPGSVKQNGPKAQPTHSSGDTVQPLSPAQGHSAAVHESQCENTTKKEVPVSPGHQKVPFTKDKHSSRLEAHLTRDELRAKALHIPFPVEKIINLPVDDFNEMMSKEQFNEAQLALIRDIRRRGKNKVAAQNCRKRKLENIVELEQDLGHLKDEREKLLREKGENDRNLHLLKRKLSTLYLEVFSMLRDEDGKPYSPSEYSLQQTRDGNVFLVPKSKKPDTKKN
binds: [1] | [2] | [3] | [4]
